According to article PMC9102673:
No constants are given. Whether binding was seen depends on the method and setting. In cells and extracts the contact can be indirect. A yes stands for co-enrichment or nearness to the bait. Other partners may have been found. Where a sequence is shown, tags or fusion partners need not be part of it.

T1: DDIT4–APEX2 fusion protein (rigid linker) (human) (UniProt Q9NX09)
T1 sequence: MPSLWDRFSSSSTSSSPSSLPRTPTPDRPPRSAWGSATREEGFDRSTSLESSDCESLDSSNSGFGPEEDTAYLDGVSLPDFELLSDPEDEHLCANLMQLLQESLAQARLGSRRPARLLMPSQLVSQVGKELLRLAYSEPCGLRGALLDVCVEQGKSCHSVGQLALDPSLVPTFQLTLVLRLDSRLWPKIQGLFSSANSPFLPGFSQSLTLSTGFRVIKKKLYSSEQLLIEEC

B1: PCCA (protein, UniProt P05165 53-728)
chain: SVGYDPNEKTFDKILVANRGEIACRVIRTCKKMGIKTVAIHSDVDASSVHVKMADEAVCVGPAPTSKSYLNMDAIMEAIKKTRAQAVHPGYGFLSENKEFARCLAAEDVVFIGPDTHAIQAMGDKIESKLLAKKAEVNTIPGFDGVVKDAEEAVRIAREIGYPVMIKASAGGGGKGMRIAWDDEETRDGFRLSSQEAASSFGDDRLLIEKFIDNPRHIEIQVLGDKHGNALWLNERECSIQRRNQKVVEEAPSIFLDAETRRAMGEQAVALARAVKYSSAGTVEFLVDSKKNFYFLEMNTRLQVEHPVTECITGLDLVQEMIRVAKGYPLRHKQADIRINGWAVECRVYAEDPYKSFGLPSIGRLSQYQEPLHLPGVRVDSGIQPGSDISIYYDPMISKLITYGSDRTEALKRMADALDNYVIRGVTHNIALLREVIINSRFVKGDISTKFLSDVYPDGFKGHMLTKSEKNQLLAIASSLFVAFQLRAQHFQENSRMPVIKPDIANWELSVKLHDKVHTVVASNNGSVFSVEVDGSKLNVTSTWNLASPLLSVSVDGTQRTVQCLSREAGGNMSIQFLGTVYKVNILTRLAAELNKFMLEKVTEDTSSVLRSPMPGVVVAVSVKPGDAVAEGQEICVIEAMKMQNSMTAGKTGTVKSVHCQAGDTVGEGDLLVELE
B2: ectodermal-neural cortex 1 (ENC1) (protein, UniProt O14682 1-589)
chain: MSVSVHENRKSRASSGSINIYLFHKSSYADSVLTHLNLLRQQRLFTDVLLHAGNRTFPCHRAVLAACSRYFEAMFSGGLKESQDSEVNFDNSIHPEVLELLLDYAYSSRVIINEENAESLLEAGDMLEFQDIRDACAEFLEKNLHPTNCLGMLLLSDAHQCTKLYELSWRMCLSNFQTIRKNEDFLQLPQDMVVQLLSSEELETEDERLVYESAINWISYDLKKRYCYLPELLQTVRLALLPAIYLMENVAMEELITKQRKSKEIVEEAIRCKLKILQNDGVVTSLCARPRKTGHALFLLGGQTFMCDKLYLVDQKAKEIIPKADIPSPRKEFSACAIGCKVYITGGRGSENGVSKDVWVYDTLHEEWSKAAPMLVARFGHGSAELKHCLYVVGGHTAATGCLPASPSVSLKQVEHYDPTINKWTMVAPLREGVSNAAVVSAKLKLFAFGGTSVSHDKLPKVQCYDQCENRWTVPATCPQPWRYTAAAVLGNQIFIMGGDTEFSACSAYKFNSETYQWTKVGDVTAKRMSCHAVASGNKLYVVGGYFGIQRCKTLDCYDPTLDVWNSITTVPYSLIPTAFVSTWKHLPS
B3: HSD17B4 (protein, UniProt P51659 1-736)
chain: MGSPLRFDGRVVLVTGAGAGLGRAYALAFAERGALVVVNDLGGDFKGVGKGSLAADKVVEEIRRRGGKAVANYDSVEEGEKVVKTALDAFGRIDVVVNNAGILRDRSFARISDEDWDIIHRVHLRGSFQVTRAAWEHMKKQKYGRIIMTSSASGIYGNFGQANYSAAKLGLLGLANSLAIEGRKSNIHCNTIAPNAGSRMTQTVMPEDLVEALKPEYVAPLVLWLCHESCEENGGLFEVGAGWIGKLRWERTLGAIVRQKNHPMTPEAVKANWKKICDFENASKPQSIQESTGSIIEVLSKIDSEGGVSANHTSRATSTATSGFAGAIGQKLPPFSYAYTELEAIMYALGVGASIKDPKDLKFIYEGSSDFSCLPTFGVIIGQKSMMGGGLAEIPGLSINFAKVLHGEQYLELYKPLPRAGKLKCEAVVADVLDKGSGVVIIMDVYSYSEKELICHNQFSLFLVGSGGFGGKRTSDKVKVAVAIPNRPPDAVLTDTTSLNQAALYRLSGDWNPLHIDPNFASLAGFDKPILHGLCTFGFSARRVLQQFADNDVSRFKAIKARFAKPVYPGQTLQTEMWKEGNRIHFQTKVQETGDIVISNAYVDLAPTSGTSAKTPSEGGKLQSTFVFEEIGRRLKDIGPEVVKKVNAVFEWHITKGGNIGAKWTIDLKSGSGKVYQGPAKGAADTTIILSDEDFMEVVLGKLDPQKAFFSGRLKARGNIMLSQKLQMILKDYAKL
B4: JUP (protein, UniProt P14923 1-745)
chain: MEVMNLMEQPIKVTEWQQTYTYDSGIHSGANTCVPSVSSKGIMEEDEACGRQYTLKKTTTYTQGVPPSQGDLEYQMSTTARAKRVREAMCPGVSGEDSSLLLATQVEGQATNLQRLAEPSQLLKSAIVHLINYQDDAELATRALPELTKLLNDEDPVVVTKAAMIVNQLSKKEASRRALMGSPQLVAAVVRTMQNTSDLDTARCTTSILHNLSHHREGLLAIFKSGGIPALVRMLSSPVESVLFYAITTLHNLLLYQEGAKMAVRLADGLQKMVPLLNKNNPKFLAITTDCLQLLAYGNQESKLIILANGGPQALVQIMRNYSYEKLLWTTSRVLKVLSVCPSNKPAIVEAGGMQALGKHLTSNSPRLVQNCLWTLRNLSDVATKQEGLESVLKILVNQLSVDDVNVLTCATGTLSNLTCNNSKNKTLVTQNSGVEALIHAILRAGDKDDITEPAVCALRHLTSRHPEAEMAQNSVRLNYGIPAIVKLLNQPNQWPLVKATIGLIRNLALCPANHAPLQEAAVIPRLVQLLVKAHQDAQRHVAAGTQQPYTDGVRMEEIVEGCTGALHILARDPMNRMEIFRLNTIPLFVQLLYSSVENIQRVAAGVLCELAQDKEAADAIDAEGASAPLMELLHSRNEGTATYAAAVLFRISEDKNPDYRKRVSVELTNSLFKHDPAAWEAAQSMIPINEPYGDDMDATYRPMYSSDVPLDPLEMHMDMDGDYPIDTYSDGLRPPYPTADHMLA
B5: S100A8 (protein, UniProt P05109 1-93)
chain: MLTELEKALNSIIDVYHKYSLIKGNFHAVYRDDLKKLLETECPQYIRKKGADVWFKELDINTDGAVNFQEFLILVIKMGVAAHKKSHEESHKE
B6: KRT18 (protein, UniProt P05783 1-430)
chain: MSFTTRSTFSTNYRSLGSVQAPSYGARPVSSAASVYAGAGGSGSRISVSRSTSFRGGMGSGGLATGIAGGLAGMGGIQNEKETMQSLNDRLASYLDRVRSLETENRRLESKIREHLEKKGPQVRDWSHYFKIIEDLRAQIFANTVDNARIVLQIDNARLAADDFRVKYETELAMRQSVENDIHGLRKVIDDTNITRLQLETEIEALKEELLFMKKNHEEEVKGLQAQIASSGLTVEVDAPKSQDLAKIMADIRAQYDELARKNREELDKYWSQQIEESTTVVTTQSAEVGAAETTLTELRRTVQSLEIDLDSMRNLKASLENSLREVEARYALQMEQLNGILLHLESELAQTRAEGQRQAQEYEALLNIKVKLEAEIATYRRLLEDGEDFNLGDALDSSNSMQTIQKTTTRRIVDGKVVSETNDTKVLRH
B7: SPRR1B (protein, UniProt P22528 1-89)
chain: MSSQQQKQPCTPPPQLQQQQVKQPCQPPPQEPCIPKTKEPCHPKVPEPCHPKVPEPCQPKVPEPCHPKVPEPCPSIVTPAPAQQKTKQK
B8: TGM3 (protein, UniProt Q08188 1-693)
chain: MAALGVQSINWQTAFNRQAHHTDKFSSQELILRRGQNFQVLMIMNKGLGSNERLEFIVSTGPYPSESAMTKAVFPLSNGSSGGWSAVLQASNGNTLTISISSPASAPIGRYTMALQIFSQGGISSVKLGTFILLFNPWLNVDSVFMGNHAEREEYVQEDAGIIFVGSTNRIGMIGWNFGQFEEDILSICLSILDRSLNFRRDAATDVASRNDPKYVGRVLSAMINSNDDNGVLAGNWSGTYTGGRDPRSWNGSVEILKNWKKSGFSPVRYGQCWVFAGTLNTALRSLGIPSRVITNFNSAHDTDRNLSVDVYYDPMGNPLDKGSDSVWNFHVWNEGWFVRSDLGPSYGGWQVLDATPQERSQGVFQCGPASVIGVREGDVQLNFDMPFIFAEVNADRITWLYDNTTGKQWKNSVNSHTIGRYISTKAVGSNARMDVTDKYKYPEGSDQERQVFQKALGKLKPNTPFAATSSMGLETEEQEPSIIGKLKVAGMLAVGKEVNLVLLLKNLSRDTKTVTVNMTAWTIIYNGTLVHEVWKDSATMSLDPEEEAEHPIKISYAQYEKYLKSDNMIRITAVCKVPDESEVVVERDIILDNPTLTLEVLNEARVRKPVNVQMLFSNPLDEPVRDCVLMVEGSGLLLGNLKIDVPTLGPKEGSRVRFDILPSRSGTKQLLADFSCNKFPAIKAMLSIDVAE
B9: MCCC1 (protein, UniProt Q96RQ3 42-725)
chain: TTATGRNITKVLIANRGEIACRVMRTAKKLGVQTVAVYSEADRNSMHVDMADEAYSIGPAPSQQSYLSMEKIIQVAKTSAAQAIHPGCGFLSENMEFAELCKQEGIIFIGPPPSAIRDMGIKSTSKSIMAAAGVPVVEGYHGEDQSDQCLKEHARRIGYPVMIKAVRGGGGKGMRIVRSEQEFQEQLESARREAKKSFNDDAMLIEKFVDTPRHVEVQVFGDHHGNAVYLFERDCSVQRRHQKIIEEAPAPGIKSEVRKKLGEAAVRAAKAVNYVGAGTVEFIMDSKHNFCFMEMNTRLQVEHPVTEMITGTDLVEWQLRIAAGEKIPLSQEEITLQGHAFEARIYAEDPSNNFMPVAGPLVHLSTPRADPSTRIETGVRQGDEVSVHYDPMIAKLVVWAADRQAALTKLRYSLRQYNIVGLHTNIDFLLNLSGHPEFEAGNVHTDFIPQHHKQLLLSRKAAAKESLCQAALGLILKEKAMTDTFTLQAHDQFSPFSSSSGRRLNISYTRNMTLKDGKNNVAIAVTYNHDGSYSMQIEDKTFQVLGNLYSEGDCTYLKCSVNGVASKAKLIILENTIYLFSKEGSIEIDIPVPKYLSSVSSQETQGGPLAPMTGTIEKVFVKAGDKVKAGDSLMVMIAMKMEHTIKSPKDGTVKKVFYREGAQANRHTPLVEFEEEESDKRESE

The binders below were run against T1, DDIT4–APEX2 fusion protein (rigid linker) (human) (assay: proximity labelling; DDIT4–APEX2 (rigid linker) expressed in SK-N-SH cells; 1 mM biotin tyramide 45 min at 37 °C with or without 330 μM NaAsO2, 1 mM H2O2 for 1.5 min; biotinylated proteins captured on streptavidin magnetic particles and identified by LC-MS/MS; proteins labelled by APEX2 alone filtered out).

Row | binding | Binder
1 | binds | B1
2 | binds | B2
3 | binds | B3
4 | binds | B4
5 | binds | B5
6 | binds | B6
7 | binds | B7
8 | binds | B8
9 | binds | B9
